These are yes or no findings as the source states them, for the method shown. In cells and extracts the contact can be indirect. These calls come from enrichment with a bait or labelling near it, and not all partners need be listed. Sequences can lack the tags named with a protein.
T1: Flag::CHMP4C WT (human) (UniProt Q96CF2)
T1 sequence: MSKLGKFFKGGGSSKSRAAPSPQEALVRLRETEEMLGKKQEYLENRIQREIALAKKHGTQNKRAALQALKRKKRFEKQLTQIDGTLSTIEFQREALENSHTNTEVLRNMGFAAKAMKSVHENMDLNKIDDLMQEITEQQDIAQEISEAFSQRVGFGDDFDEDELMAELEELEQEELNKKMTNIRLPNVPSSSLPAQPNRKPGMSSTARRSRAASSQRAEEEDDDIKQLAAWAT

Amino acid sequences for entries named in this document (tags omitted).
UniProt P62136: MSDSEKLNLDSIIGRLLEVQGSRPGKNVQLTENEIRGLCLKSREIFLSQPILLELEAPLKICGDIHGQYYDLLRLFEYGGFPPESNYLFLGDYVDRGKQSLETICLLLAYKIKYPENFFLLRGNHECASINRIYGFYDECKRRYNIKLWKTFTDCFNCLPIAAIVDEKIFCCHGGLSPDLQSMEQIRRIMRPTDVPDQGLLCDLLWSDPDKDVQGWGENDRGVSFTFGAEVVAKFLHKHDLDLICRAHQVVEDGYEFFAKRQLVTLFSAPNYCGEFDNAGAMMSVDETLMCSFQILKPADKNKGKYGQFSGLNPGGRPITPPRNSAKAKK
UniProt P67775: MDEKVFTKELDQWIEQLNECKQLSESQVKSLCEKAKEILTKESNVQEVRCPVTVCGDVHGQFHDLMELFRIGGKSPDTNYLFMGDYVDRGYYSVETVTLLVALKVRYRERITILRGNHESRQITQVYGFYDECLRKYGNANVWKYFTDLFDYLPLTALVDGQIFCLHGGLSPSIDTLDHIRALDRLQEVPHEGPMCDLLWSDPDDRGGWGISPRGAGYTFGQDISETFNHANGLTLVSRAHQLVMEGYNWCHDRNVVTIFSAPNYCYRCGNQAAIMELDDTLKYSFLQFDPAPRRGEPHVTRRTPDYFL
UniProt Q96GD4: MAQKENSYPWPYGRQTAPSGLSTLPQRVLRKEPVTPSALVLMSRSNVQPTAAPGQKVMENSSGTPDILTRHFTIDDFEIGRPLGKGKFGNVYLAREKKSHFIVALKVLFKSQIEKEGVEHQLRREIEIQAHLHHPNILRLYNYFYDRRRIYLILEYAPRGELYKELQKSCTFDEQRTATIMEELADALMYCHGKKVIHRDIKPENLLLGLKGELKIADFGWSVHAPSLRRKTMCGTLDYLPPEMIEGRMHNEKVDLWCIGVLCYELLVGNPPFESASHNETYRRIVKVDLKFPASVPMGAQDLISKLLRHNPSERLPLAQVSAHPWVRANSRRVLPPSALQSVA
UniProt Q9NQS7: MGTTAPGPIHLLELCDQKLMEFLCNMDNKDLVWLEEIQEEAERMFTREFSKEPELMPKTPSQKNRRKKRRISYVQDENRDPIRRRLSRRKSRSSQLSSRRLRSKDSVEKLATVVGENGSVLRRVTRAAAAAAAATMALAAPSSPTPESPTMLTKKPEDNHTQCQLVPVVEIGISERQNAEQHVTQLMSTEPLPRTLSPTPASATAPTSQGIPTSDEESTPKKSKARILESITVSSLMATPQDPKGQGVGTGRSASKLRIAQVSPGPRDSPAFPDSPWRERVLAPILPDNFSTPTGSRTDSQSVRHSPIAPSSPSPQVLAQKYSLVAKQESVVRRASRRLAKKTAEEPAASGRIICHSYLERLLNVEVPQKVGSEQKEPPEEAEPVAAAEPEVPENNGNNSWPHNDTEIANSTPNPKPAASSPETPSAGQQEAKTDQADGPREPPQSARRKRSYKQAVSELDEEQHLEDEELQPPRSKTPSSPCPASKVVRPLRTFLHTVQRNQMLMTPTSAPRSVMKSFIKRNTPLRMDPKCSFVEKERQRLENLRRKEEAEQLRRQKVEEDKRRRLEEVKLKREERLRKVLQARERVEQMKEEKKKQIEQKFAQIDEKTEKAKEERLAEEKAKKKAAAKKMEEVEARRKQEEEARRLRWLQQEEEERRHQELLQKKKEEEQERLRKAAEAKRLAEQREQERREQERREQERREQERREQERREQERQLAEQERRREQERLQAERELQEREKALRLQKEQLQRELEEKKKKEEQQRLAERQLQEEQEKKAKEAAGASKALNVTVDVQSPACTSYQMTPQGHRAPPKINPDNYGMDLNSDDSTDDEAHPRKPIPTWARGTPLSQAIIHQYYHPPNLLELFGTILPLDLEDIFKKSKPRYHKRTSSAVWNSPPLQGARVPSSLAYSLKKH
UniProt Q8WUM4: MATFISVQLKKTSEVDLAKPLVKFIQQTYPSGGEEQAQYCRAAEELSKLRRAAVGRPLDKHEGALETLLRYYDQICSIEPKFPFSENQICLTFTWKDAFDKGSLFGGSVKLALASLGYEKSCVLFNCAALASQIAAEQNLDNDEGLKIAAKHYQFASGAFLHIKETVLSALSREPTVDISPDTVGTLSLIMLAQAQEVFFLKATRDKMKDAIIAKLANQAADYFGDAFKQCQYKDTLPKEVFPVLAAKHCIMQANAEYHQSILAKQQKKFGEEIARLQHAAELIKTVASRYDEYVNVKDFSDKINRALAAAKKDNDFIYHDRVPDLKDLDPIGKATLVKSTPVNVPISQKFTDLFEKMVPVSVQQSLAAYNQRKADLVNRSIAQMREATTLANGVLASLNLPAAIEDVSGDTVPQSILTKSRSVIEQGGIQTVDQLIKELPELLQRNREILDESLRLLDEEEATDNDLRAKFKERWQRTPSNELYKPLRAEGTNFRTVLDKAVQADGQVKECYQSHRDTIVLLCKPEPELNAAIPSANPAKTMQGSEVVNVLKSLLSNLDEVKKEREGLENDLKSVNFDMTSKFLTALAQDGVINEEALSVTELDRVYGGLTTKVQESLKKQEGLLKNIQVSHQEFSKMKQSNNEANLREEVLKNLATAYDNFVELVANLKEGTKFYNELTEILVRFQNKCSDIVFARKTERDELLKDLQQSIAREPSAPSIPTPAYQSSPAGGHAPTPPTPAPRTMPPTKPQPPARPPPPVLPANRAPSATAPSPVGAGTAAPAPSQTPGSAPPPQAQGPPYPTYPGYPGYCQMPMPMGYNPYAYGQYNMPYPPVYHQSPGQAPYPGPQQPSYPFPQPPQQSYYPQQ
UniProt P30153: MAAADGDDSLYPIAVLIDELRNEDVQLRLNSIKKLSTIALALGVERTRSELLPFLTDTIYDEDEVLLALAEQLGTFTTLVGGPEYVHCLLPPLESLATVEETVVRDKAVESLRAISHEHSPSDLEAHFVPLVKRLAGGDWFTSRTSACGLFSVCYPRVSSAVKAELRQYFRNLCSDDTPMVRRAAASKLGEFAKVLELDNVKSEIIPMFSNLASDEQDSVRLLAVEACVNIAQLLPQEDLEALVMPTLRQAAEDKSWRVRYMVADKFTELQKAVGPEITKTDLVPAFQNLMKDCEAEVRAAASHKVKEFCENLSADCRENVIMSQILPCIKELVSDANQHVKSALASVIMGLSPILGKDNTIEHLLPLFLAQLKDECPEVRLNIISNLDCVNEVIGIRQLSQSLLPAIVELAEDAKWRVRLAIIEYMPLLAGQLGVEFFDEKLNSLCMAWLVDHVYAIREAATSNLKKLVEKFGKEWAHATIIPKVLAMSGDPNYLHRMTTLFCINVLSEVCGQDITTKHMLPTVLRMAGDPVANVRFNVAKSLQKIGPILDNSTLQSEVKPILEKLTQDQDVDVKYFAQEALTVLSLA

B1: KIF23/MKLP1 (endogenous) (protein, UniProt Q02241 1-960)
chain: MKSARAKTPRKPTVKKGSQTNLKDPVGVYCRVRPLGFPDQECCIEVINNTTVQLHTPEGYRLNRNGDYKETQYSFKQVFGTHTTQKELFDVVANPLVNDLIHGKNGLLFTYGVTGSGKTHTMTGSPGEGGLLPRCLDMIFNSIGSFQAKRYVFKSNDRNSMDIQCEVDALLERQKREAMPNPKTSSSKRQVDPEFADMITVQEFCKAEEVDEDSVYGVFVSYIEIYNNYIYDLLEEVPFDPIKPKPPQSKLLREDKNHNMYVAGCTEVEVKSTEEAFEVFWRGQKKRRIANTHLNRESSRSHSVFNIKLVQAPLDADGDNVLQEKEQITISQLSLVDLAGSERTNRTRAEGNRLREAGNINQSLMTLRTCMDVLRENQMYGTNKMVPYRDSKLTHLFKNYFDGEGKVRMIVCVNPKAEDYEENLQVMRFAEVTQEVEVARPVDKAICGLTPGRRYRNQPRGPVGNEPLVTDVVLQSFPPLPSCEILDINDEQTLPRLIEALEKRHNLRQMMIDEFNKQSNAFKALLQEFDNAVLSKENHMQGKLNEKEKMISGQKLEIERLEKKNKTLEYKIEILEKTTTIYEEDKRNLQQELETQNQKLQRQFSDKRRLEARLQGMVTETTMKWEKECERRVAAKQLEMQNKLWVKDEKLKQLKAIVTEPKTEKPERPSRERDREKVTQRSVSPSPVPLSSNYIAQISNGQQLMSQPQLHRRSNSCSSISVASCISEWEQKIPTYNTPLKVTSIARRRQQEPGQSKTCIVSDRRRGMYWTEGREVVPTFRNEIEIEEDHCGRLLFQPDQNAPPIRLRHRRSRSAGDRWVDHKPASNMQTETVMQPHVPHAITVSVANEKALAKCEKYMLTHQELASDGEIETKLIKGDIYKTRGGGQSVQFTDIETLKQESPNGSRKRRSSTVAPAQPDGAESEWTDVETRCSVAVEMRAGSQLGPGYQHHAQPKRKKP
B2: Borealin (endogenous) (protein, UniProt Q53HL2 1-280)
chain: MAPRKGSSRVAKTNSLRRRKLASFLKDFDREVEIRIKQIESDRQNLLKEVDNLYNIEILRLPKALREMNWLDYFALGGNKQALEEAATADLDITEINKLTAEAIQTPLKSAKTRKVIQVDEMIVEEEEEEENERKNLQTARVKRCPPSKKRTQSIQGKGKGKRSSRANTVTPAVGRLEVSMVKPTPGLTPRFDSRVFKTPGLRTPAAGERIYNISGNGSPLADSKEIFLTVPVGGGESLRLLASDLQRHSIAQLDPEALGNIKKLSNRLAQICSSIRTHK
B3: CHMP4B (endogenous) (protein, UniProt Q9H444 1-224)
chain: MSVFGKLFGAGGGKAGKGGPTPQEAIQRLRDTEEMLSKKQEFLEKKIEQELTAAKKHGTKNKRAALQALKRKKRYEKQLAQIDGTLSTIEFQREALENANTNTEVLKNMGYAAKAMKAAHDNMDIDKVDELMQDIADQQELAEEISTAISKPVGFGEEFDEDELMAELEELEQEELDKNLLEISGPETVPLPNVPSIALPSKPAKKKEEEDDDMKELENWAGSM
B4: MgcRacGAP/RacGAP1 (endogenous) (protein, UniProt Q9H0H5 1-632)
chain: MDTMMLNVRNLFEQLVRRVEILSEGNEVQFIQLAKDFEDFRKKWQRTDHELGKYKDLLMKAETERSALDVKLKHARNQVDVEIKRRQRAEADCEKLERQIQLIREMLMCDTSGSIQLSEEQKSALAFLNRGQPSSSNAGNKRLSTIDESGSILSDISFDKTDESLDWDSSLVKTFKLKKREKRRSTSRQFVDGPPGPVKKTRSIGSAVDQGNESIVAKTTVTVPNDGGPIEAVSTIETVPYWTRSRRKTGTLQPWNSDSTLNSRQLEPRTETDSVGTPQSNGGMRLHDFVSKTVIKPESCVPCGKRIKFGKLSLKCRDCRVVSHPECRDRCPLPCIPTLIGTPVKIGEGMLADFVSQTSPMIPSIVVHCVNEIEQRGLTETGLYRISGCDRTVKELKEKFLRVKTVPLLSKVDDIHAICSLLKDFLRNLKEPLLTFRLNRAFMEAAEITDEDNSIAAMYQAVGELPQANRDTLAFLMIHLQRVAQSPHTKMDVANLAKVFGPTIVAHAVPNPDPVTMLQDIKRQPKVVERLLSLPLEYWSQFMMVEQENIDPLHVIENSNAFSTPQTPDIKVSLLGPVTTPEHQLLKTPSSSSLSQRVRSTLTKNTPRFGSKSKSATNLGRQGNFFASPMLK

What follows are molecules tested against T1, Flag::CHMP4C WT (human) (assay: affinity purification with mass spectrometry; anti-Flag M2 magnetic beads; extracts of HeLa Kyoto cells stably expressing Flag::CHMP4C WT synchronized in telophase; 150 mM NaCl, 100 mM KAc, 0.5% NP-40, 4°C; Flag alone as control).

binding, binds:
PP1 catalytic subunit (PPP1CA) (endogenous) (from UniProt P62136 1-330) (enzyme)
PP2A catalytic subunit (PP2CA) (endogenous) (from UniProt P67775 1-309) (enzyme)
Aurora B (endogenous) (from UniProt Q96GD4 1-344) (enzyme)
INCENP (endogenous) (from UniProt Q9NQS7 1-918)
ALIX (ALG2-interacting protein X, also known as programmed cell death 6 interacting protein, PDCD6IP) (endogenous) (from UniProt Q8WUM4 1-868)
PP2A regulatory subunit A (PPP2R1A) (endogenous) (from UniProt P30153 1-589)
B1
B2
B3
B4

— paper PMC5090064, “Coordinated regulation of the ESCRT-III component CHMP4C by the chromosomal passenger complex and centralspindlin during cytokinesis” (Open Biology, 2016)
